Data on 1 substance can be found in publication doi:10.1101/2020.05.20.107664.

For assay [1], the target named is T1, α-COP variant R233H (α-COP-FLAG), stably expressed in MEFs (mouse) (UniProt Q8CIE6).
T1 sequence: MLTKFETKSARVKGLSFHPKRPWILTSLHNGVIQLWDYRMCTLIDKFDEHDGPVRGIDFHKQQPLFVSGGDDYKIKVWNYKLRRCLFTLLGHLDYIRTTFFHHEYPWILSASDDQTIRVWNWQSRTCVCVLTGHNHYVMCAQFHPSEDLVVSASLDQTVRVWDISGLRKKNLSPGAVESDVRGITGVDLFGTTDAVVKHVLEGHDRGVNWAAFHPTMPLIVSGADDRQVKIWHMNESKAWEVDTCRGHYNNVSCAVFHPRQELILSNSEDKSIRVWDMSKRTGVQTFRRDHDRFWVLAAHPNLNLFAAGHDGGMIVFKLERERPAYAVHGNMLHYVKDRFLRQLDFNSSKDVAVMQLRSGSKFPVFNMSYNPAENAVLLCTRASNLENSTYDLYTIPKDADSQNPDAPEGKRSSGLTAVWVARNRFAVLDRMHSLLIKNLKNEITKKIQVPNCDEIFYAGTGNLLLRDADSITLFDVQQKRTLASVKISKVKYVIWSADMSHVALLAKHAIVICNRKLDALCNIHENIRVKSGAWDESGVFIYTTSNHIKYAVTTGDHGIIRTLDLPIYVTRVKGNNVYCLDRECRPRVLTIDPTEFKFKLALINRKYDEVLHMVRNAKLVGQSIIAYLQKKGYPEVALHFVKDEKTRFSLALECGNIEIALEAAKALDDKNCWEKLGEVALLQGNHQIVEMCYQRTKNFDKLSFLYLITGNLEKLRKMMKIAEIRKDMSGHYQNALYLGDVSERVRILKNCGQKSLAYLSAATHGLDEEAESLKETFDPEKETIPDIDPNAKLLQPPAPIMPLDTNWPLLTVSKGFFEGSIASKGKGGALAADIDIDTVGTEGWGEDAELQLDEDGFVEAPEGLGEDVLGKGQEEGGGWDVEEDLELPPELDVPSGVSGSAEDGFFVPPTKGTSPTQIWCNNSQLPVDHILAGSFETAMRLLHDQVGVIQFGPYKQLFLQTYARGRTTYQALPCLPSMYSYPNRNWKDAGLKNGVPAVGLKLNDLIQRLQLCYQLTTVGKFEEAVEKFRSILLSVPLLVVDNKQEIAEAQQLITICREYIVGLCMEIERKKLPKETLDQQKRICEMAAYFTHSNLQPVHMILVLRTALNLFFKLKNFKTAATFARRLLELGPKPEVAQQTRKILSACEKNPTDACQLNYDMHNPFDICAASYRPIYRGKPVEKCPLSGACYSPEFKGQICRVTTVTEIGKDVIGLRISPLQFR
The assay can be described thus: co-IP.

Assay [2] deals with T2, wild-type α-COP (α-COP-FLAG), stably expressed in MEFs (mouse) (UniProt Q8CIE6).
T2 sequence: T1 sequence with H233R
Description: co-IP.

Where a chain is given by its changes, count along the chain named. No constants are given. Whether binding was seen depends on the method and setting. In cells and extracts the contact can be indirect. A result given as binding can be weak or reduced; the word gives no strength. Sequences can lack the tags named with a protein.

For the substance “EGFP-mouse STING, stably expressed in MEFs”, the binding entry in assay [1] and in assay [2] was “binds” each time.
